Our source for the binding values is article PMC4010968, “Nap1 stimulates homologous recombination by RAD51 and RAD54 in higher-ordered chromatin containing histone H1” (Scientific Reports, 2014).

Results are given in words; binding and its absence hold for the method and conditions named. In cells and extracts the contact can be indirect. Some results given as binding are weak or reduced against the parent protein; the word gives no strength. Tags and fused reporters may be left off the sequences shown.

This assay deals with T1, FLAG-Nap1 (human) (UniProt P55209).
T1 sequence: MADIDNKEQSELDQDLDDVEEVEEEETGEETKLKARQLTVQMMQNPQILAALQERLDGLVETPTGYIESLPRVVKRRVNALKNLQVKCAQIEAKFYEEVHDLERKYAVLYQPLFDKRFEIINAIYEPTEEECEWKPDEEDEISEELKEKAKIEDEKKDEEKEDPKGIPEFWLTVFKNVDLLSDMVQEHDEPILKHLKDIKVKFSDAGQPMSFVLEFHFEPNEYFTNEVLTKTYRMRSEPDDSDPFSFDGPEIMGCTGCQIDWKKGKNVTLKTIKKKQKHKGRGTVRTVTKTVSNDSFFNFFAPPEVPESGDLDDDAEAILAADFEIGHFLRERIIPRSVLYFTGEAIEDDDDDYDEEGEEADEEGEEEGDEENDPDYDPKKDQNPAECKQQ
The assay can be described thus: co-IP; FLAG-Nap1 captured with an anti-FLAG antibody from HEK293T cells expressing FLAG-Nap1 and Myc-RAD54, with or without cisplatin; Myc-RAD54 and endogenous RAD51 detected by anti-Myc and anti-RAD51 blots (the paper calls it a pull-down assay).

B1: Myc-RAD54 (protein, UniProt Q92698 1-747)
chain: MRRSLAPSQLAKRKPEGRSCDDEDWQPGLVTPRKRKSSSETQIQECFLSPFRKPLSQLTNQPPCLDSSQHEAFIRSILSKPFKVPIPNYQGPLGSRALGLKRAGVRRALHDPLEKDALVLYEPPPLSAHDQLKLDKEKLPVHVVVDPILSKVLRPHQREGVKFLWECVTSRRIPGSHGCIMADEMGLGKTLQCITLMWTLLRQSPECKPEIDKAVVVSPSSLVKNWYNEVGKWLGGRIQPLAIDGGSKDEIDQKLEGFMNQRGARVSSPILIISYETFRLHVGVLQKGSVGLVICDEGHRLKNSENQTYQALDSLNTSRRVLISGTPIQNDLLEYFSLVHFVNSGILGTAHEFKKHFELPILKGRDAAASEADRQLGEERLRELTSIVNRCLIRRTSDILSKYLPVKIEQVVCCRLTPLQTELYKRFLRQAKPAEELLEGKMSVSSLSSITSLKKLCNHPALIYDKCVEEEDGFVGALDLFPPGYSSKALEPQLSGKMLVLDYILAVTRSRSSDKVVLVSNYTQTLDLFEKLCRARRYLYVRLDGTMSIKKRAKVVERFNSPSSPDFVFMLSSKAGGCGLNLIGANRLVMFDPDWNPANDEQAMARVWRDGQKKTCYIYRLLSAGTIEEKIFQRQSHKKALSSCVVDEEQDVERHFSLGELKELFILDEASLSDTHDRLHCRRCVNSRQIRPPPDGSDCTSDLAGWNHCTDKWGLRDEVLQAAWDAASTAITFVFHQRSHEEQRGLR
Turning to B1, the binding entry is recorded as “binds”.
